Article PMC6218445
These are yes or no findings as the source states them, for the method shown. In cells and extracts the contact can be indirect. Some entries that bind do so weakly or less than the wild type.

Amino acid sequences for entries named in this document (tags omitted). A change or cut given only in a name is not applied to a line headed by its entry. Chains listed by the source or under a name are the forms on record and can include a tag or linker.
UniProt Q13315: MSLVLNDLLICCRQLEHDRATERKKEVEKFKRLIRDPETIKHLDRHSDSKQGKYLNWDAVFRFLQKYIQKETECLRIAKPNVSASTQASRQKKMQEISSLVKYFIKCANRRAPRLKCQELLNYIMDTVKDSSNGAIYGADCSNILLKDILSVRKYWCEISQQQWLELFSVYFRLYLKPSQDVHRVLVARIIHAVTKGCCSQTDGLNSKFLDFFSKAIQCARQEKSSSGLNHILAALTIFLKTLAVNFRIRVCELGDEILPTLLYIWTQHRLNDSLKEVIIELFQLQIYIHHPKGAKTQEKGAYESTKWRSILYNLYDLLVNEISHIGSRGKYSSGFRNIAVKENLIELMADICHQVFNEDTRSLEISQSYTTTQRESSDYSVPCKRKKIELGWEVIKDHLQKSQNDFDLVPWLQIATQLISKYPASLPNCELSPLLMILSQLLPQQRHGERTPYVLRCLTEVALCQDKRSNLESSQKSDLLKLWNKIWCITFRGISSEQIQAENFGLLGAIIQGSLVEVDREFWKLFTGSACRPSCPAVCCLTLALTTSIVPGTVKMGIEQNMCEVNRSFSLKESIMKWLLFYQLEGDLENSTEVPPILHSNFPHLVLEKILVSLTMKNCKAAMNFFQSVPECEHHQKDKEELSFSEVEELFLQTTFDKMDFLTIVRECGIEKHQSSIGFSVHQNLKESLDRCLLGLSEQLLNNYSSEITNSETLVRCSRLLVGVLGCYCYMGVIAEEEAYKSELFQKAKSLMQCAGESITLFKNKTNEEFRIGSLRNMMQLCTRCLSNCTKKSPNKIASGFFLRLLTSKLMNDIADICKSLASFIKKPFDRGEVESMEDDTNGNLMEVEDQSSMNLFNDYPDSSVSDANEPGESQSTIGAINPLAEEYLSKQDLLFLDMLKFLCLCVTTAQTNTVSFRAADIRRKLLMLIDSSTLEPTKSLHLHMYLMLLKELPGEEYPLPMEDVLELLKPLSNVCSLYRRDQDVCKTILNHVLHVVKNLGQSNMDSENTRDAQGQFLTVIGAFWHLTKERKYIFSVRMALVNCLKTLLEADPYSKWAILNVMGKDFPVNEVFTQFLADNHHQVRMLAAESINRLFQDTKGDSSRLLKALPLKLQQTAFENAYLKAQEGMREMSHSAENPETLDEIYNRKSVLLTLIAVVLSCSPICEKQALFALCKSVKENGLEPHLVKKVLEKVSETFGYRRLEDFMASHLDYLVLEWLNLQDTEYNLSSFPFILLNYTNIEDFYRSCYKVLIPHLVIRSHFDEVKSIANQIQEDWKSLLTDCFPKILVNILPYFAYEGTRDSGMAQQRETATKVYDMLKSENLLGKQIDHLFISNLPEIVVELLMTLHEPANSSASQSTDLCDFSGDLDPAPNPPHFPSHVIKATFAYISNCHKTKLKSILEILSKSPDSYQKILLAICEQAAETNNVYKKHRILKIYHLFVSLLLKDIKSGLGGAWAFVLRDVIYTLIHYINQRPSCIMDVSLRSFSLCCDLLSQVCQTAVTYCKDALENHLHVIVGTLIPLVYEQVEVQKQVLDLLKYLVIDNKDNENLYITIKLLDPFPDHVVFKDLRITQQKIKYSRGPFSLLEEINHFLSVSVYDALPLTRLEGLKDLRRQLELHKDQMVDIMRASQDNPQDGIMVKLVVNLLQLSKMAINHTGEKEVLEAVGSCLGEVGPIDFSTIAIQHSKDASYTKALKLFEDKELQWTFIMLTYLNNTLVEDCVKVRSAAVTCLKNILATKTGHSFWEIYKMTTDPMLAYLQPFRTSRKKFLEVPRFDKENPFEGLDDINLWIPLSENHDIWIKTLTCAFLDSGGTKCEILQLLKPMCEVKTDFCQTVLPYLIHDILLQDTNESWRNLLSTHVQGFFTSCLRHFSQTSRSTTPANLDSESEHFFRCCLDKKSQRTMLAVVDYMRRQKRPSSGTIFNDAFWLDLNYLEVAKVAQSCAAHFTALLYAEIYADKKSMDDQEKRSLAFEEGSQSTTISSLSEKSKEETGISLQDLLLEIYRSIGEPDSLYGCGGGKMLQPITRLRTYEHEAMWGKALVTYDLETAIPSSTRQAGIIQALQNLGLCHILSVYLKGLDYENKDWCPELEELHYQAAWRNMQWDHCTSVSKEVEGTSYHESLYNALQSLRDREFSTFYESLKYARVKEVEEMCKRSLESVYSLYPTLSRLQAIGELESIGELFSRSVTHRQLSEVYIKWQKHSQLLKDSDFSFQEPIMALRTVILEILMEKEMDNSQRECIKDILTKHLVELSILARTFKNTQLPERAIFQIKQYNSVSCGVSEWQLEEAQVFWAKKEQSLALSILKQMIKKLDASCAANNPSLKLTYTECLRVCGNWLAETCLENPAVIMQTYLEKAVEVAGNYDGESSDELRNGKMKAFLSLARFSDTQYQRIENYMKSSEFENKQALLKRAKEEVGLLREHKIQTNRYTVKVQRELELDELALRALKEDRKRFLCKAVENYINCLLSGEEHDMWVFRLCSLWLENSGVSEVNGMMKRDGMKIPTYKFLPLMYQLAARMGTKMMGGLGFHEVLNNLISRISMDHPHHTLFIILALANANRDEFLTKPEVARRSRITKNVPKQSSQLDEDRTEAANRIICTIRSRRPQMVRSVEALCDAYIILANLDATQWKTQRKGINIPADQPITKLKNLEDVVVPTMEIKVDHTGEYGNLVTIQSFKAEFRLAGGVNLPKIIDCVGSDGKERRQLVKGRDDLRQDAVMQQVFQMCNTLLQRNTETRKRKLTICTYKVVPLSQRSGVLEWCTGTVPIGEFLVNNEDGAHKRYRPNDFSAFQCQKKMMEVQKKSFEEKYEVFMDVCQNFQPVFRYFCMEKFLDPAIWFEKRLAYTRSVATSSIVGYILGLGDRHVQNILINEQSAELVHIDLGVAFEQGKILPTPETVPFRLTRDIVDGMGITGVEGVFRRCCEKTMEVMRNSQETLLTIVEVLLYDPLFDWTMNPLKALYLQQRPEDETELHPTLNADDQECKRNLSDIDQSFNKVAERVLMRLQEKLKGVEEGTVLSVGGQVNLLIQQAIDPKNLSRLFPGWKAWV
UniProt P14618: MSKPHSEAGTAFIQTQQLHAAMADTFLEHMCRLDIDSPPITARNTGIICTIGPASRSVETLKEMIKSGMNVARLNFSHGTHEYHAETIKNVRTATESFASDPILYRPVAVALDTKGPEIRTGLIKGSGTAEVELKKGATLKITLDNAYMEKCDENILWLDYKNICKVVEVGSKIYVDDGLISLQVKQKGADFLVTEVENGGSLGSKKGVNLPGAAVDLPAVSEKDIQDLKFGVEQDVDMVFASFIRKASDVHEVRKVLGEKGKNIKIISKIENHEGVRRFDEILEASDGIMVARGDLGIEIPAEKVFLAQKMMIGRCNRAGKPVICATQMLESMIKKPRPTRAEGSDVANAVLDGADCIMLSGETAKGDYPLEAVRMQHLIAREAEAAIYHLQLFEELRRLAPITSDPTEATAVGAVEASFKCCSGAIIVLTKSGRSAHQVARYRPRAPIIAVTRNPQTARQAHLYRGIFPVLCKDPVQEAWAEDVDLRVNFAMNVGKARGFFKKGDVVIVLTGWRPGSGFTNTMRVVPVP
PKM1 (P14618-2, form named): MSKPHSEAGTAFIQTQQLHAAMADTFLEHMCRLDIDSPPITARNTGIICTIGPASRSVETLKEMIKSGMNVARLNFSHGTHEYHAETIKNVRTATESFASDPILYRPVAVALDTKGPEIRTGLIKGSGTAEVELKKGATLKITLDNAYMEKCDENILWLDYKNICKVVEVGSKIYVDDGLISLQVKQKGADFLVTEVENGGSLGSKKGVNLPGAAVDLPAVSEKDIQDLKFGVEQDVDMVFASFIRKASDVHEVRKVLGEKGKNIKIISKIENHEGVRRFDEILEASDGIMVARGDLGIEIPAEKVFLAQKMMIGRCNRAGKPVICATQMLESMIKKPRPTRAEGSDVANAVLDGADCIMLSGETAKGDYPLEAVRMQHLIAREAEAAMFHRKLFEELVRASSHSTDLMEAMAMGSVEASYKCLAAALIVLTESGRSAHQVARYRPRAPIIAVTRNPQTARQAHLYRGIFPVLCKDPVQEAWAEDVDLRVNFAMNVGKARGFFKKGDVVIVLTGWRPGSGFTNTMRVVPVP
UniProt Q06609: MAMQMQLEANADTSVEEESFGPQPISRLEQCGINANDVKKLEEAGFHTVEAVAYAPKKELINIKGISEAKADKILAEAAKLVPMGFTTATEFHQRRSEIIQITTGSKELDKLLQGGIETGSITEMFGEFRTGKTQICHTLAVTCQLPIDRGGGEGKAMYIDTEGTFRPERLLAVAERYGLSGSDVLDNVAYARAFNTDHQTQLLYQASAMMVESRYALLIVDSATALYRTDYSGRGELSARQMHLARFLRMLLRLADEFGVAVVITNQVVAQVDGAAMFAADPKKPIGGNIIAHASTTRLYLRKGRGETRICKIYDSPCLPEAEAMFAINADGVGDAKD

What was measured:
[1] = target: ataxia telangiectasia mutated (human (endogenous in U87)) (UniProt Q13315); test: co-IP; lysates of U87 cells treated with 0 or 6 Gy, immunoprecipitated with antibodies against ATM, PKM2 or anti-rabbit IgG (reciprocal), immunoblot; endogenous proteins
[2] = target: pyruvate kinase M2 (human (endogenous in U87)) (UniProt P14618); test: co-IP; lysates of unirradiated or irradiated U87 cells, immunoprecipitated with PKM2 and CtIP antibodies or anti-rabbit IgG, western blot; endogenous proteins

Row | binding [2] | Substance | binding [1]
1 | – | pyruvate kinase M2 (from UniProt P14618 1-531) (enzyme) | binds
2 | binds | Rad51 (from UniProt Q06609 1-339) | –
3 | – | PKM1 (from UniProt P14618-2 1-531) (enzyme) | no binding
